The list shows a part of the results. Shown are side measurements of this screen, not its main read-out; they come without a call. Compounds called inactive in the main read-out are mostly missing here. Words in brackets tell the shape of the fitted curve; partial curves, single points and poor fits give uncertain potencies.
Assay: qHTS Assay to Find Inhibitors of Chronic Active B-Cell Receptor Signaling
Settings: ABC-DLBCL IkBa-CBG/CBR reporter, luminescence ratio (green luciferase fused to IkBa over red control in TMD8 lymphoma cells), 4 h
Outline: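 Concentration-response series (up to 46 uM) were applied to TMD8 dual-reporter cells for 4 h at 37C with doxycycline. Green/red ratio, after filter-overlap correction, defined %Activity; red signal alone was normalised to basal cells and zero luminescence.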

[1] = measured here: CBR red luminescence, cell number
[2] = measured here: IkBa-CBG green luminescence

SMILES	AC50 [1]	AC50 [2]
COc1ccc(CN(C)Cc2c(O)ccc3cc(Br)ccc23)cc1OC	8.91 µM [falling, partial curve, poor fit]	
Cc1ccc(S(=O)(=O)Nc2cccc3cccnc23)c([N+](=O)[O-])c1	5.62 µM [rising, single point]	3.55 µM [falling, single point]
Cc1ccc(S(=O)(=O)NCC(=O)OCC(=O)c2ccc(Br)s2)cc1	1.84 µM [falling, full curve]	
CCOC(=O)c1cc(-c2ccccc2C)n(CC2CC(c3ccc(OC)cc3)=NO2)n1 (configuration not stated)	29.1 µM [falling, single point]	
O=C(Nc1nnc(C2=COCCO2)o1)c1cccc(C(F)(F)F)c1	35.5 µM [rising, single point]	
O=C(NC(=O)c1ccccc1O)c1ccc2c(c1)CCO2	1.26 µM [falling, full curve]	
CCN(c1ccccc1)S(=O)(=O)c1ccc2[nH]cc(C(=O)NC3CCCCC3)c(=O)c2c1	35.5 µM [rising, single point]	
N#C/C(=C\c1ccccn1)c1ccccn1	22.4 µM [falling, partial curve, poor fit]	
Cc1sc2nc(SCC(=O)NCc3ccco3)n(CCc3ccccc3)c(=O)c2c1C	6.51 µM [rising, single point]	
COc1cc(C(=O)Nc2nccs2)cc(OC)c1OC	0.13 µM [falling, full curve, poor fit]	
CCOc1ccc(Br)cc1S(=O)(=O)Nc1ccc(NC(=O)c2ccccc2F)cc1	29.1 µM [rising, single point]	
Cc1noc(C)c1C(=O)NCCc1ccc(Cl)cc1	18.4 µM [rising, single point]	16.4 µM [falling, partial curve, poor fit]
Cc1c(C(=O)OCC(=O)NCCc2ccc(S(N)(=O)=O)cc2)oc2ccccc12	2.91 µM [rising, full curve, poor fit]	
CCCn1nnnc1SCC(=O)N1CCCc2ccccc21	11.6 µM [rising, partial curve]	
COc1ccccc1-c1cc(C(=O)NCc2cccs2)no1	2 µM [falling, full curve]	
CC(=O)c1cc(C(=O)c2ccccc2)sc1Nc1ccccc1	25.9 µM [falling, single point]	
COc1ccc(C(=O)N(Cc2nc(-c3ccc(C)cc3)no2)C(C)C)cc1OC	18.4 µM [rising, single point]	
CC1(C)OC(=O)C(C(c2ccccc2)C(C#N)C(N)=O)=C(O)O1 (configuration not stated)	29.1 µM [rising, single point]	
CC(NC(=O)c1ccccc1)C(=O)N/N=C/c1ccc(O)cc1 (configuration not stated)	35.5 µM [falling, single point]	
CN(C)S(=O)(=O)c1cc(NC(=O)[C@H](Cc2ccccc2)N2C(=O)c3ccccc3C2=O)ccc1Cl	3.66 µM [rising, partial curve, poor fit]	
C=CCON1C(=O)c2ccccc2C1=O	16.4 µM [falling, single point]	

SMILES	AC50 [1]	AC50 [2]
Cc1sc(NC(=O)CN2CCCC2)nc1-c1ccc2c(c1)CCN2C(=O)c1cccc(F)c1	8.91 µM [falling, partial curve, poor fit]	
COc1ccccc1-c1nnc2sc(-c3cnccn3)nn12	1.03 µM [falling, single point]	
O=C(Oc1ccccc1C(=O)Nc1ccccc1)c1ccccc1Br	29.1 µM [falling, single point]	4.11 µM [falling, partial curve, poor fit]
Cc1noc(C)c1CSc1nc2sc(C)c(C)c2c(=O)n1C1CCCC1	20.6 µM [rising, single point]	
CCOC(=O)c1c(NC(=O)COC(=O)CCNS(=O)(=O)c2ccccc2)sc(C(=O)N(C)C)c1C	16.4 µM [rising, partial curve, poor fit]	
O=C(Nc1nnc(-c2ccccc2)s1)c1ccccc1F	2.51 µM [falling, partial curve, poor fit]	
COc1ccc(OC)c(/C=C/C(=O)c2ccc(Cl)cc2)c1	35.5 µM [rising, single point]	
O=C(COc1ccc2ccccc2c1)NNC(=O)c1ccc([N+](=O)[O-])cc1	35.5 µM [rising, partial curve, poor fit]	
CCC(=O)Nc1cccc(C(=O)/C=C/c2ccc(F)cc2)c1	11.2 µM [falling, partial curve, poor fit]	
Cc1cccc(OC(C)C(=O)Nc2cc(Cl)ccc2-n2cncn2)c1 (configuration not stated)	0.461 µM [rising, full curve]	
Cc1nnc(SCc2cccc(Cl)c2)n(N)c1=O	3.55 µM [falling, full curve]	
Brc1ccc2c(c1)CNc1c(ncnc1N1CCOCC1)O2	8.91 µM [rising, partial curve, poor fit]	5.62 µM [falling, partial curve, poor fit]
Cc1nc(NCc2ccccc2)[nH]c(=O)c1CCC(C)C	0.103 µM [rising, full curve, poor fit]	
Cc1c(C(=O)Nc2ccc(-c3nnc4n3CCCCC4)cc2)oc2c1ccc1ccccc12		5.17 µM [rising, partial curve, poor fit]
O=C(/C=C/c1cccs1)NC(=S)Nc1ccc(C(=O)O)cc1	0.251 µM [falling, full curve, poor fit]	
CCCN(CCC)CCCNC(=S)Nc1ccc2nc(N3CCN(CC)CC3)cc(C)c2c1	1.12 µM [falling, full curve, poor fit]	
CCOc1ncccc1C(=O)OCc1ccccc1	11.6 µM [rising, partial curve]	
COc1cccc(C(=O)Nc2ccc3c(c2)C(=O)N(CC2CCCO2)C3=O)c1 (configuration not stated)	20 µM [falling, partial curve, poor fit]	
CN(CC(=O)N1CCN(c2ncccn2)CC1)S(=O)(=O)c1ccc(Cl)cc1	35.5 µM [falling, single point]	
C=CCn1c(SCC(=O)NCC)nnc1-c1cc2c(s1)CCC(CC)C2 (configuration not stated)	2.91 µM [rising, partial curve]	
CCN(CC)S(=O)(=O)c1ccc(N2CCOCC2)c(NC(=O)c2c3c(nc4ccccc24)CCC3)c1	2.91 µM [rising, full curve, poor fit]	5.8 µM [falling, partial curve, poor fit]

Part of the list above in order of SMILES length, rising:
SMILES	AC50 [1]	AC50 [2]
O=C(Nc1nnc(-c2ccccc2)s1)c1ccccc1F	2.51 µM [falling, partial curve, poor fit]	
Cc1noc(C)c1CSc1nc2sc(C)c(C)c2c(=O)n1C1CCCC1	20.6 µM [rising, single point]	
CCOC(=O)c1c(NC(=O)COC(=O)CCNS(=O)(=O)c2ccccc2)sc(C(=O)N(C)C)c1C	16.4 µM [rising, partial curve, poor fit]	

(list continues)

SMILES	AC50 [1]	AC50 [2]
CCOc1ccccc1C(=O)N1CCN(c2cccc(Cl)c2)CC1	2.91 µM [rising, full curve, poor fit]	2.06 µM [falling, full curve]
Cc1cc(OCC(=O)N(Cc2ccccc2)C2CCS(=O)(=O)C2)ccc1Cl (configuration not stated)	10 µM [falling, partial curve]	
CC[C@]12c3[nH]c4ccc(Cl)cc4c3CCN1C(=O)[C@@H](CC(=O)NCc1cccc(C(F)(F)F)c1)C[C@@H]2C(=O)N1CCN(C(=O)C2CC2)CC1	29.1 µM [falling, single point]	
COc1cc2c(cc1OC)CN(C(=S)Nc1ccc(C)cc1C)CC2	4.11 µM [falling, single point]	
Clc1ccccc1/C=C/c1ccnc2ccccc12	20 µM [falling, single point]	
CC(C)Sc1cc(Cl)nc(NC(=O)Nc2ccccc2)n1	2 µM [falling, partial curve, poor fit]	
C=CCN1C(=O)S/C(=C\c2ccc3c(c2)n(C)c(=O)n3C)C1=O	3.26 µM [rising, full curve]	
CCOc1cc(/C=C2\SC(N3CCCCC3)=NC2=O)ccc1O	20 µM [falling, single point]	
Cn1c(SCC(=O)N2CCCCC2)nc2c(c1=O)SCC2	22.4 µM [falling, partial curve, poor fit]	
C=CCOC(=O)C1=C(C)OC(N)=C(C#N)C1c1ccc(OC)c(CSc2ccccn2)c1 (configuration not stated)		20.6 µM [falling, single point]
Cc1ccccc1-c1nc2ccccc2c(=O)n1/N=C/c1ccccc1[N+](=O)[O-]	12.6 µM [falling, partial curve, poor fit]	
CCOC(=O)c1c(-c2ccccc2)oc2ccc(OCC(O)CN(C)C)cc12 (configuration not stated)	5.01 µM [falling, partial curve, poor fit]	
CC(=C/c1ccco1)/C=N/NC(=O)CSc1nnc(SCc2ccc(C)cc2)s1	20.6 µM [falling, single point]	
COc1ccc(C(=O)N/N=C/c2ccc(OC)c(COc3ccc(F)cc3F)c2)cc1	5.62 µM [falling, full curve, poor fit]	
CC(=O)c1cc(-c2ccccc2)n(CCC(=O)NC(C)(C)C)c1C	14.1 µM [rising, partial curve]	
O=S(=O)(c1ccc(Br)s1)N1CCN(c2ccccn2)CC1	2.82 µM [falling, full curve, poor fit]	
COc1ccc(CCNC(=O)c2ccc3c(c2)N(Cc2ccc(C)cc2)CCS3)cc1OC	35.5 µM [falling, single point]	
COc1cc(/C=C2/CC/C(=C/c3ccc(O)c(OC)c3)C2=O)ccc1O	17.8 µM [falling, partial curve, poor fit]	
CCOC(=O)c1c(C)[nH]c(C(=O)COC(=O)CNC(=O)c2ccc(Cl)cc2)c1C	20.6 µM [falling, partial curve]	
